Laboratory results reported in publication doi:10.1101/684480.
No constants are given. Whether binding was seen depends on the method and setting. Binding can be weak; no strength is given. For part of these data: In cells and extracts the contact can be indirect.

Legend:
[1] = target: kinase-dead BCR-ABL (K271H) (human); test: native gel or EMSA
[2] = target: BCR-ABL with deleted SH2 domain (human); test: co-IP
[3] = target: BCR-ABL with deleted SH3 domain (human); test: co-IP

| binding [1] | binding [2] | binding [3] | Binder |
| --- | --- | --- | --- |
| binds |  |  | SHIP2 of NIH3T3 cells (enzyme, UniProt Q6P549 1-1257) MASVCGTPSPGGALGSPAPAWYHRDLSRAAAEELLARAGRDGSFLVRDSESVAGAFALCVLYQKHVHTYRILPDGEDFLAVQTSQGVPVRRFQTLGELIGLYAQPNQGLVCALLLPVEGEREPDPPDDRDASDVEDEKPPLPPRSGSTSISAPVGPSSPLPTPETPTTPAAESTPNGLSTVSHEYLKGSYGLDLEAVRGGASNLPHLTRTLVTSCRRLHSEVDKVLSGLEILSKVFDQQSSPMVTRLLQQQSLPQTGEQELESLVLKLSVLKDFLSGIQKKALKALQDMSSTAPPAPLQPSIRKAKTIPVQAFEVKLDVTLGDLTKIGKSQKFTLSVDVEGGRLVLLRRQRDSQEDWTTFTHDRIRQLIKSQRVQNKLGVVFEKEKDRTQRKDFIFVSARKREAFCQLLQLMKNRHSKQDEPDMISVFIGTWNMGSVPPPKNVTSWFTSKGLGKALDEVTVTIPHDIYVFGTQENSVGDREWLDLLRGGLKELTDLDYRPIAMQSLWNIKVAVLVKPEHENRISHVSTSSVKTGIANTLGNKGAVGVSFMFNGTSFGFVNCHLTSGNEKTTRRNQNYLDILRLLSLGDRQLSAFDISLRFTHLFWFGDLNYRLDMDIQEILNYISRREFEPLLRVDQLNLEREKHKVFLRFSEEEISFPPTYRYERGSRDTYAWHKQKPTGVRTNVPSWCDRILWKSYPETHIICNSYGCTDDIVTSDHSPVFGTFEVGVTSQFISKKGLSKTSDQAYIEFESIEAIVKTASRTKFFIEFYSTCLEEYKKSFENDAQSSDNINFLKVQWSSRQLPTLKPILADIEYLQDQHLLLTVKSMDGYESYGECVVALKSMIGSTAQQFLTFLSHRGEETGNIRGSMKVRVPTERLGTRERLYEWISIDKDDTGAKSKVPSVSRGSQEHRSGSRKPASTETSCPLSKLFEEPEKPPPTGRPPAPPRAVPREEPLNPRLKSEGTSEQEGVAAPPPKNSFNNPAYYVLEGVPHQLLPLEPPSLARAPLPPATKNKVAITVPAPQLGRHRTPRVGEGSSSDEDSGGTLPPPDFPPPPLPDSAIFLPPNLDPLSMPVVRGRSGGEARGPPPPKAHPRPPLPPGTSPASTFLGEVASGDDRSCSVLQMAKTLSEVDYAPGPGRSALLPNPLELQPPRGPSDYGRPLSFPPPRIRESIQEDLAEEAPCPQGGRASGLGEAGMGAWLRAIGLERYEEGLVHNGWDDLEFLSDITEEDLEEAGVQDPAHKRLLLDTLQLSK |
|  | binds | binds | SHC1, endogenous (protein, UniProt P29353 1-583) MDLLPPKPKYNPLRNESLSSLEEGASGSTPPEELPSPSASSLGPILPPLPGDDSPTTLCSFFPRMSNLRLANPAGGRPGSKGEPGRAADDGEGIVGAAMPDSGPLPLLQDMNKLSGGGGRRTRVEGGQLGGEEWTRHGSFVNKPTRGWLHPNDKVMGPGVSYLVRYMGCVEVLQSMRALDFNTRTQVTREAISLVCEAVPGAKGATRRRKPCSRPLSSILGRSNLKFAGMPITLTVSTSSLNLMAADCKQIIANHHMQSISFASGGDPDTAEYVAYVAKDPVNQRACHILECPEGLAQDVISTIGQAFELRFKQYLRNPPKLVTPHDRMAGFDGSAWDEEEEEPPDHQYYNDFPGKEPPLGGVVDMRLREGAAPGAARPTAPNAQTPSHLGATLPVGQPVGGDPEVRKQMPPPPPCPGRELFDDPSYVNVQNLDKARQAVGGAGPPNPAINGSAPRDLFDMKPFEDALRVPPPPQSVSMAEQLRGEPWFHGKLSRREAEALLQLNGDFLVRESTTTPGQYVLTGLQSGQPKHLLLVDPEGVVRTKDHRFESVSHLISYHMDNHLPIISAGSELCLQQPVERKL |
